The list does not hold the whole screen: it gathers tests that were run many times, whatever their T/C, doses with no T/C, and many T/C values between a quarter and a half above the control. Further doses and runs are listed elsewhere. T/C gives the treated animals as a percentage of the vehicle group. Some doses have a count of surviving animals in place of a T/C: the source holds a T/C of zero for them, seemingly a mark for toxic or unscored doses. Some survivor counts are full or nearly so, which does not show that the dose was tolerated: the source hardly ever lists a survival T/C far under the control, and the zero likely stands for such cases as well. Survivors were counted at the toxicity check, usually on the fifth day, unless a day is given; later deaths do not show. Schedules are NCI's codes, read here as Q, the interval in days (D) or hours (H), X, the number of doses. Some entries were tested several times; the results are listed from low to high. For survival time, the PubChem record calls one and a half times the control and up active, and a quarter to a half above the control has no call in these data; cut-offs in other NCI protocols can differ.
System: P388 leukemia ip, CD2F1 mice, survival T/C
Assay: NCI In Vivo Anticancer Drug Screen. Data for tumor model P388 Leukemia (intraperitoneal) in CD2F1 (CDF1) mice
Details: T/C endpoint: median survival time, higher T/C = longer survival
[1] = dose: 400.0 mg/kg/injection, schedule: Q04DX002 (ip), vehicle: saline with Tween-80
[2] = dose: 400.0 mg/kg/injection, schedule: Q04DX002 (ip), vehicle: saline
[3] = dose: 100.0 mg/kg/injection, schedule: Q01DX009 (ip), vehicle: saline with Tween-80
[4] = dose: 200.0 mg/kg/injection, schedule: Q01DX009 (ip), vehicle: saline with Tween-80
[5] = dose: 100.0 mg/kg/injection, schedule: Q01DX009 (ip), vehicle: Klucel (hydroxypropylcellulose) (HPC)

O=C1NC(N(CCCl)CCCl)=NC1(c1ccccc1)c1ccccc1
survivor count [1]: 3 of 6

C=CC(C)(C)c1c2c(c(OC)c3ccc(=O)oc13)C=CC(C)(C)O2
survivor count (dose: 100.0 mg/kg/injection, schedule: Q01DX005 (ip), vehicle: saline with Tween-80): 6 of 6
survivor count (dose: 200.0 mg/kg/injection, schedule: Q01DX005 (ip), vehicle: saline with Tween-80): 6 of 6

CCCCCC(=O)NC(Cc1ccc(N(CCCl)CCCl)cc1)C(=O)O (stereo not given)
T/C (dose: 5.3 mg/kg/injection, schedule: Q01DX009 (ip), vehicle: saline): 136 % of control
T/C (dose: 10.6 mg/kg/injection, schedule: Q01DX009 (ip), vehicle: saline): 140 % of control
T/C (dose: 10.6 mg/kg/injection, schedule: Q03HX008 (ip), vehicle: saline): 130 % of control
survivor count (dose: 42.4 mg/kg/injection, schedule: Q03HX008 (ip), vehicle: saline): 0 of 10

[Se]=P(N1CCOCC1)(N1CCOCC1)N1CCOCC1
survivor count (dose: 55.0 mg/kg/injection, schedule: Q01DX001 (ip), vehicle: Klucel (hydroxypropylcellulose) (HPC)): 0 of 6

Cn1cccc/c1=N\N
survivor count [2]: 1 of 6

N#C/C(=C/c1ccccc1)CBr
survivor count (dose: 200.0 mg/kg/injection, schedule: Q01DX001 (ip), vehicle: saline with Tween-80): 0 of 6
survivor count (dose: 400.0 mg/kg/injection, schedule: Q01DX001 (ip), vehicle: saline with Tween-80): 0 of 6

NC(=O)Nc1ccc(/C=C\c2ccnc3ccccc23)cc1
survivor count (dose: 100.0 mg/kg/injection, schedule: Q04DX003 (ip), vehicle: saline with Tween-80): 6 of 6
survivor count (dose: 200.0 mg/kg/injection, schedule: Q04DX003 (ip), vehicle: saline with Tween-80): 2 of 6
survivor count (dose: 400.0 mg/kg/injection, schedule: Q04DX003 (ip), vehicle: saline with Tween-80): 0 of 6

CC1(C)OI(O)c2ccccc21
survivor count (dose: 400.0 mg/kg/injection, schedule: Q04DX002 (ip), vehicle: Klucel (hydroxypropylcellulose) (HPC)): 0 of 6

NC(=S)N/N=C\c1nccc2ccc(N)cc12
survivor count [3]: 6 of 6
survivor count [4]: 4 of 6

CCC1C[N+]2(C)CCc3cc(OC)c(OC)cc3C2CC1=O (stereo not given)
survivor count [3]: 2 of 6
survivor count [4]: 0 of 6

COc1cc(C(=O)c2cc3c(cc2C)OCO3)cc(OC)c1OC
T/C [5]: 145 % of control

O=C1C2(Cl)C3(Cl)C4(Cl)C(Cl)(Cl)C5(Cl)[C@]3(Cl)C1(Cl)[C@]5(Cl)C24Cl (stereo not given in full)
survivor count (dose: 50.0 mg/kg/injection, schedule: Q01DX009 (ip), vehicle: Klucel (hydroxypropylcellulose) (HPC)): 4 of 6
survivor count (dose: 50.0 mg/kg/injection, schedule: Q01DX009 (ip), vehicle: saline with Tween-80): 3 of 6 and 6 of 6
survivor count [5]: 5 of 6
survivor count [3]: 0 of 6
survivor count (dose: 200.0 mg/kg/injection, schedule: Q01DX009 (ip), vehicle: Klucel (hydroxypropylcellulose) (HPC)): 1 of 6
survivor count [4]: 0 of 6
survivor count (dose: 400.0 mg/kg/injection, schedule: Q01DX009 (ip), vehicle: Klucel (hydroxypropylcellulose) (HPC)): 2 of 6

CC1CC[P+](Cc2ccccc2)(c2ccccc2)CC1 (stereo not given)
survivor count (dose: 12.5 mg/kg/injection, schedule: Q04DX002 (ip), vehicle: saline): 2 of 6
survivor count (dose: 25.0 mg/kg/injection, schedule: Q04DX002 (ip), vehicle: saline): 0 of 6
survivor count (dose: 50.0 mg/kg/injection, schedule: Q04DX002 (ip), vehicle: saline): 0 of 6
survivor count (dose: 100.0 mg/kg/injection, schedule: Q04DX002 (ip), vehicle: saline): 0 of 6
survivor count (dose: 200.0 mg/kg/injection, schedule: Q04DX002 (ip), vehicle: saline): 0 of 6
survivor count [2]: 0 of 6

OCC1OC(n2cnc3c(=S)nc[nH]c32)CC1O (stereo not given)
survivor count (dose: 400.0 mg/kg/injection, schedule: Q01DX009 (ip), vehicle: saline with Tween-80): 3 of 6
survivor count (dose: 600.0 mg/kg/injection, schedule: Q01DX009 (ip), vehicle: saline with Tween-80): 4 of 6

c1ccc2c(c1)ccc1ncc3ncccc3c12
survivor count [1]: 1 of 6

C1CCC2(CC1)CSSC2
survivor count (dose: 25.0 mg/kg/injection, schedule: Q04DX002 (ip), vehicle: saline with Tween-80): 0 of 6
survivor count (dose: 100.0 mg/kg/injection, schedule: Q04DX002 (ip), vehicle: saline with Tween-80): 0 of 6
survivor count (dose: 200.0 mg/kg/injection, schedule: Q04DX002 (ip), vehicle: saline with Tween-80): 0 of 6
survivor count [1]: 0 of 6
